For assay [1], the target named is Flag-HDAC1 (histone deacetylase 1) (UniProt Q13547). The assay is described as follows: co-IP; 293T cells transfected with Flag-HDAC1 and HA-MDM2; lysis buffer 50 mM Tris pH 8.0, 150 mM NaCl, 1 mM EDTA, 1% NP-40, 1 mM DTT; immunoprecipitation overnight at 4 °C, western blot; in Fig. 6c cells were treated with RG 7112 (2.5 μM) or vehicle for 24 h.
A further assay deals with GST-HDAC1 (UniProt Q13547). The assay is described as follows: pull-down; GST or GST-HDAC1 immobilized on a Sepharose 4B column, His-MDM2 applied; bound MDM2 detected by western blot with anti-MDM2 antibody; cell-free; both purified.

Protein sequences, listed by entry. Tags and fused reporters are not part of them.
UniProt Q13547: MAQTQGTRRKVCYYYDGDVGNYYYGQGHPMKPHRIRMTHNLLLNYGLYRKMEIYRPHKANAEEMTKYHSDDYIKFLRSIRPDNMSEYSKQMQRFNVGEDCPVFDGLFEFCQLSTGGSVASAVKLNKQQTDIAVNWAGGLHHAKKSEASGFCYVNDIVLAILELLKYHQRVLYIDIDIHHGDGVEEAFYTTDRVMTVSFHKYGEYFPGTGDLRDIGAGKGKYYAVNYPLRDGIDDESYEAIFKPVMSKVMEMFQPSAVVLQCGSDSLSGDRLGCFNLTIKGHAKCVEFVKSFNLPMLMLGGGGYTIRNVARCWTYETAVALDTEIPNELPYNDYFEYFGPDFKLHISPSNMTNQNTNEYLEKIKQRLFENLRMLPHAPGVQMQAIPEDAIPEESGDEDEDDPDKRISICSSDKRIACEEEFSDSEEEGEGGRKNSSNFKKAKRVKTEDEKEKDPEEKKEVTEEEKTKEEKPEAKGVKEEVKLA
UniProt Q00987: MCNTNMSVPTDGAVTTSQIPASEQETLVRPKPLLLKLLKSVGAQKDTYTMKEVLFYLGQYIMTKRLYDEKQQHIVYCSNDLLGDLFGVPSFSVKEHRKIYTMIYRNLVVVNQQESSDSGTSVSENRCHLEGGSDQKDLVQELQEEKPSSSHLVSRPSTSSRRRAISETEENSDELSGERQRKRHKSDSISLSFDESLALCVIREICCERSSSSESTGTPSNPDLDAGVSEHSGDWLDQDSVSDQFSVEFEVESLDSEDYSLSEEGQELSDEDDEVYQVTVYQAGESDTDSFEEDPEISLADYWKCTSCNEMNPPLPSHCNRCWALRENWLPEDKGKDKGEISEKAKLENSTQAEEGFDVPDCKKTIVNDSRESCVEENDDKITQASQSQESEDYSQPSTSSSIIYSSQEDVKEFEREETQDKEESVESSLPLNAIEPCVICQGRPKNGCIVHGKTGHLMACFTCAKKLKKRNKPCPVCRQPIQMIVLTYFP

Results are given in words; binding and its absence hold for the method and conditions named. For some assays here: Binding seen in cells or lysates may run through a third protein. Some entries that bind do so weakly or less than the wild type.

On to “HA-MDM2 (pcDNA6-3xHA-MDM2-Myc) (from UniProt Q00987 1-491)”, for which the binding result in assay [1] was “binds”.

Take His-MDM2 (from UniProt Q00987 1-491): the binding result with GST-HDAC1 was “binds”.

For the origin of these results see publication PMC4740400.
